Record: PubChem BioAssay AID1259405 (NCATS, 2018)
The whole screen tested about 50,000 reagents; below is a random part of them. About 4,000 of all reagents (8%) were called active. 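Mouse siRNA library applied to hamster cells; one well for each siRNA.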 A number with no mark means an inactive call. Reagents against one gene are numbered here. Reagent sequences are not shown.

Screen: 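Silenced genes that increase secreted GFP made by CHO cells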 (primary screen)
Cells: Chinese hamster CHO-K1 ovary cells with stable secreted eGFP expression
Reagent: single siRNA against mouse genes, 0.8 pmol siRNA per well (2 µl of 400 nM stock)
Timing: 3 days
Measurement: 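Percent of the per-plate non-targeting control median for intracellular GFP per well by laser scanning cytometry and for cell viability by ATP luminescence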
Reading the numbers: GFP, % of control: higher = more GFP per well, higher productivity; viability (ATP), % of control: higher = more viable cells (more ATP)
Call rule: 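Called active when intracellular GFP, relative to negative control, is at or above 120%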

{"gene symbol": "9930038B18Rik (RIKEN cDNA 9930038B18 gene)", "reagent no.": 1, "GFP, % of control": 101, "viability (ATP), % of control": 81.2}
{"gene symbol": "9930038B18Rik (RIKEN cDNA 9930038B18 gene)", "reagent no.": 2, "GFP, % of control": 46, "viability (ATP), % of control": 46.6}
{"gene symbol": "9930038B18Rik (RIKEN cDNA 9930038B18 gene)", "reagent no.": 3, "GFP, % of control": 78.8, "viability (ATP), % of control": 110}
{"gene symbol": "Tlcd4 (TLC domain containing 4)", "reagent no.": 1, "GFP, % of control": 93.2, "viability (ATP), % of control": 79.2}
{"gene symbol": "Tlcd4 (TLC domain containing 4)", "reagent no.": 2, "GFP, % of control": 87.4, "viability (ATP), % of control": 61.1}
{"gene symbol": "Tlcd4 (TLC domain containing 4)", "reagent no.": 3, "GFP, % of control": 62.2, "viability (ATP), % of control": 58.4}
{"gene symbol": "Rps27 (ribosomal protein S27)", "reagent no.": 1, "GFP, % of control": 59.3, "viability (ATP), % of control": 43.5}
{"gene symbol": "Rps27 (ribosomal protein S27)", "reagent no.": 2, "GFP, % of control": 112, "viability (ATP), % of control": 70.3}
{"gene symbol": "Rps27 (ribosomal protein S27)", "reagent no.": 3, "GFP, % of control": 53.2, "viability (ATP), % of control": 46.8}
{"gene symbol": "Tdpoz5 (TD and POZ domain containing 5)", "reagent no.": 1, "GFP, % of control": 92.1, "viability (ATP), % of control": 98.7}
{"gene symbol": "Tdpoz5 (TD and POZ domain containing 5)", "reagent no.": 2, "GFP, % of control": "164 (active)", "viability (ATP), % of control": 86.8}
{"gene symbol": "Tdpoz5 (TD and POZ domain containing 5)", "reagent no.": 3, "GFP, % of control": 82.9, "viability (ATP), % of control": 89.7}
{"gene symbol": "Mrgpra2b (MAS-related GPR, member A2B)", "reagent no.": 1, "GFP, % of control": 87.3, "viability (ATP), % of control": 54.3}
{"gene symbol": "Mrgpra2b (MAS-related GPR, member A2B)", "reagent no.": 2, "GFP, % of control": 87.1, "viability (ATP), % of control": 87.3}
{"gene symbol": "Mrgpra2b (MAS-related GPR, member A2B)", "reagent no.": 3, "GFP, % of control": 51.1, "viability (ATP), % of control": 59.6}
{"gene symbol": "Nts (neurotensin)", "reagent no.": 1, "GFP, % of control": 97.5, "viability (ATP), % of control": 75.6}
{"gene symbol": "Nts (neurotensin)", "reagent no.": 2, "GFP, % of control": "130 (active)", "viability (ATP), % of control": 92.7}
{"gene symbol": "Nts (neurotensin)", "reagent no.": 3, "GFP, % of control": 70.9, "viability (ATP), % of control": 112}
{"gene symbol": "Epgn (epithelial mitogen)", "reagent no.": 1, "GFP, % of control": 93.2, "viability (ATP), % of control": 93.1}
{"gene symbol": "Epgn (epithelial mitogen)", "reagent no.": 2, "GFP, % of control": 22.6, "viability (ATP), % of control": 34.8}
{"gene symbol": "Epgn (epithelial mitogen)", "reagent no.": 3, "GFP, % of control": 51.3, "viability (ATP), % of control": 58.2}
{"gene symbol": "Angptl6 (angiopoietin-like 6)", "reagent no.": 1, "GFP, % of control": 90.8, "viability (ATP), % of control": 91.1}
{"gene symbol": "Angptl6 (angiopoietin-like 6)", "reagent no.": 2, "GFP, % of control": 118, "viability (ATP), % of control": 75.2}
{"gene symbol": "Scn8a (sodium channel, voltage-gated, type VIII, alpha)", "reagent no.": 1, "GFP, % of control": 75, "viability (ATP), % of control": 85.5}
{"gene symbol": "Scn8a (sodium channel, voltage-gated, type VIII, alpha)", "reagent no.": 2, "GFP, % of control": 79.1, "viability (ATP), % of control": 46.2}
{"gene symbol": "Scn8a (sodium channel, voltage-gated, type VIII, alpha)", "reagent no.": 3, "GFP, % of control": 61.8, "viability (ATP), % of control": 76.9}

Records above called active (2):
{"gene symbol": "Tdpoz5 (TD and POZ domain containing 5)", "reagent no.": 2, "GFP, % of control": "164 (active)", "viability (ATP), % of control": 86.8}
{"gene symbol": "Nts (neurotensin)", "reagent no.": 2, "GFP, % of control": "130 (active)", "viability (ATP), % of control": 92.7}

Additional entries:
{"gene symbol": "Tnfsf9 (tumor necrosis factor (ligand) superfamily, member 9)", "reagent no.": 1, "GFP, % of control": 99.1, "viability (ATP), % of control": 71.6}
{"gene symbol": "Tnfsf9 (tumor necrosis factor (ligand) superfamily, member 9)", "reagent no.": 2, "GFP, % of control": 91.3, "viability (ATP), % of control": 129}
{"gene symbol": "Tnfsf9 (tumor necrosis factor (ligand) superfamily, member 9)", "reagent no.": 3, "GFP, % of control": "121 (active)", "viability (ATP), % of control": 125}
{"gene symbol": "Synpo2l (synaptopodin 2-like)", "reagent no.": 1, "GFP, % of control": 70.8, "viability (ATP), % of control": 83.7}
{"gene symbol": "Synpo2l (synaptopodin 2-like)", "reagent no.": 2, "GFP, % of control": 61.7, "viability (ATP), % of control": 67.5}
{"gene symbol": "Treml6 (triggering receptor expressed on myeloid cells-like 6)", "reagent no.": 1, "GFP, % of control": "174 (active)", "viability (ATP), % of control": 84.7}
{"gene symbol": "Treml6 (triggering receptor expressed on myeloid cells-like 6)", "reagent no.": 2, "GFP, % of control": 66.9, "viability (ATP), % of control": 75.8}
{"gene symbol": "Treml6 (triggering receptor expressed on myeloid cells-like 6)", "reagent no.": 3, "GFP, % of control": 44.4, "viability (ATP), % of control": 37}
{"gene symbol": "Stoml3 (stomatin (Epb7.2)-like 3)", "reagent no.": 1, "GFP, % of control": 76.9, "viability (ATP), % of control": 43.8}
{"gene symbol": "Stoml3 (stomatin (Epb7.2)-like 3)", "reagent no.": 2, "GFP, % of control": 75.1, "viability (ATP), % of control": 70.8}
{"gene symbol": "Stoml3 (stomatin (Epb7.2)-like 3)", "reagent no.": 3, "GFP, % of control": 56.2, "viability (ATP), % of control": 84.8}
{"gene symbol": "Zfp932 (zinc finger protein 932)", "reagent no.": 1, "GFP, % of control": 67.5, "viability (ATP), % of control": 54.1}
{"gene symbol": "Zfp932 (zinc finger protein 932)", "reagent no.": 2, "GFP, % of control": 69.1, "viability (ATP), % of control": 90.2}
{"gene symbol": "Zfp932 (zinc finger protein 932)", "reagent no.": 3, "GFP, % of control": 49.6, "viability (ATP), % of control": 60.7}
